Test results from the supplement of paper PMC10849652.
The list shows a part of the results.

By UniProt entry, the sequences of proteins in these tests, tags left out. Where a name states a change or a piece, a line headed by the entry shows the natural chain unless it says otherwise.
UniProt P50461: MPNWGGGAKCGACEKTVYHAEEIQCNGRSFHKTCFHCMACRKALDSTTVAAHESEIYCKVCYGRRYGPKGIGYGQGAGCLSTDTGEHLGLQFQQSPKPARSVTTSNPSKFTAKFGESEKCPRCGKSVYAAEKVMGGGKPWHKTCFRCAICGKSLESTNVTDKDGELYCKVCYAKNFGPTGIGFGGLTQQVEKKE
UniProt Q9Y5B0: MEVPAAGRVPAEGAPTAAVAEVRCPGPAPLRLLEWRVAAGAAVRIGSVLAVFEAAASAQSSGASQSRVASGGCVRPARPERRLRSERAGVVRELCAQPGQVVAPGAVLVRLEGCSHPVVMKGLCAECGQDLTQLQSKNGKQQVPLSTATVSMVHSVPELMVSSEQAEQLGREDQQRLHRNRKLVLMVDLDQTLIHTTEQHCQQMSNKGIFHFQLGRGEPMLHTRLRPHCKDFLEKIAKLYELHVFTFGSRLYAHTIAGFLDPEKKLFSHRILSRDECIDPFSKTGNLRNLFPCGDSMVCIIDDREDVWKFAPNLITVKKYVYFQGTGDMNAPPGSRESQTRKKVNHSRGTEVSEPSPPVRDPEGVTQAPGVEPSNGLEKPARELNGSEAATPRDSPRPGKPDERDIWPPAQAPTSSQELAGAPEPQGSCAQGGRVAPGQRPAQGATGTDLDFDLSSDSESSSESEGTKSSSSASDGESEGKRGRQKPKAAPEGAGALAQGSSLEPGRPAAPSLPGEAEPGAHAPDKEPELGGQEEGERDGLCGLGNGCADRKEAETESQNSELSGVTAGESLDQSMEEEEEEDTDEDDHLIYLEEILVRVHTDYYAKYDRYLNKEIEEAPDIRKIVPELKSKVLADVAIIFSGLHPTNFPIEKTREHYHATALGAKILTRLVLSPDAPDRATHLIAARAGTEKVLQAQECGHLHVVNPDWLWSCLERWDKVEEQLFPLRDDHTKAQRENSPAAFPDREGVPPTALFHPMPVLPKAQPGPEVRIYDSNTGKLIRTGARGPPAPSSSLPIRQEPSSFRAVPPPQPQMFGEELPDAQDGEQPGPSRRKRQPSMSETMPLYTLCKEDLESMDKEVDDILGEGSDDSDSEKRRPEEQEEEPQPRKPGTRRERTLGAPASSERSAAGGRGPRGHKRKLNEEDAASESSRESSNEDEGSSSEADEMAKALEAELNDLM
UniProt P68400, whole entry, looked up: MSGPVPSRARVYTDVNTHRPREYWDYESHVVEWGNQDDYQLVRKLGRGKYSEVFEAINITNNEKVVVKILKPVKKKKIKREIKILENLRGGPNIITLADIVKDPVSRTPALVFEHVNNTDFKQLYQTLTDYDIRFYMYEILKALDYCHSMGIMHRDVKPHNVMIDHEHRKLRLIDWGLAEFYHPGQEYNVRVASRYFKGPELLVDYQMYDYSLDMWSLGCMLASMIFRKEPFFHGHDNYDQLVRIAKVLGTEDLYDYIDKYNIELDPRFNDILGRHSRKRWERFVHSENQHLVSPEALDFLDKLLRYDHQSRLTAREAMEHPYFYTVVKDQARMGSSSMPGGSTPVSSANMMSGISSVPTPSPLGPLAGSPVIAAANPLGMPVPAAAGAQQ
UniProt P99999: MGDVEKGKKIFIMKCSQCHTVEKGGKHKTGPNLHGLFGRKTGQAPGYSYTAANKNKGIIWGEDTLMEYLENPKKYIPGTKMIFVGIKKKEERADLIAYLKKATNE

Key:
Test in all cases: log2 fold change, soluble protein after heating vs DMSO (PISA); higher = thermal stabilisation; K562 lysate, 10 uM; active = over 0.2 and 3.5 SD of the protein, either way, in both replicates (recomputed)
erlotinib = compound: C#Cc1cccc(Nc2ncnc3cc(OCCOC)c(OCCOC)cc23)c1 [erlotinib]
In short: (§1)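 Soluble protein was defined as the supernatant remaining after 21,000xg for 90 min, following pooling of heated aliquots and adjustment to 0.5% NP-40 at 4°C. Before that, crude K562 extract at 1 mg/mL protein in PBS pH 7.4 with 1 mM MgCl2 was treated with 10 μM compound for 30 min and heated for 3 min across 48°C-58°C. Quantification used TMTpro 16plex LC-MS/MS with channel sums equalised, and values are log-two fold changes in thermal stability relative to solvent controls from duplicates.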

[1] = compound: C/C(=N\NC(=O)C1=CC(=CC=C1)S(=O)(=O)N2CCOCC2)/C3=C(C=CC(=C3)Cl)O
In short: as §1

[2] = compound: C1=CC(=CC=C1C2=NC3=C(N2)C=C(C=C3)C(=O)N)OC4=CC=C(C=C4)Cl
In short: as §1

[3] = compound: C1=CC2=C(C=CC(=C2)/C=C\3/C(=O)NC(=NCC4=CC=CS4)S3)N=C1
In short: as §1

[4] = compound: C1=CC2=NC=CN=C2C=C1/C=C/3\C(=O)NC(=O)S3
In short: as §1

[5] = compound: C1=CC=C(C=C1)C2=NC(=C(N2)C3=CC=NC=C3)C4=CC(=C(C=C4)Cl)O
In short: as §1

[6] = compound: C1=CC=C2C(=C1)C3=NNC4=CC=CC(=C43)C2=O
In short: as §1

[7] = compound: C1CCN(C1)C(=O)NC2=CC=CC(=C2)NC3=NC=C(C(=N3)NCCC4=CN=CN4)Br
In short: as §1

[8] = compound: C1CN(CCC1(CC2=CC=C(C=C2)Cl)N)C3=NC=NC4=C3C=CN4
In short: as §1

IRAK-1-4 Inhibitor I = compound: C1COCCN1CCN2C3=CC=CC=C3N=C2NC(=O)C4=CC(=CC=C4)[N+](=O)[O-] [IRAK-1-4 Inhibitor I]
In short: as §1

ibrutinib = compound: C=CC(=O)N1CCC[C@@H](n2nc(-c3ccc(Oc4ccccc4)cc3)c3c(N)ncnc32)C1 [ibrutinib]
In short: as §1

[9] = compound: CC(=O)c1cnc2ccc(-c3cc(Cl)c(O)c(Cl)c3)nc2c1N[C@H]1CC[C@H](CN(C)C)CC1
In short: as §1

ralimetinib = compound: CC(C)(C)Cn1c(N)nc2ccc(-c3[nH]c(C(C)(C)C)nc3-c3ccc(F)cc3)nc21 [ralimetinib]
In short: as §1

[10] = compound: CC(C)(O)CC(=O)NCCn1ccc2ncnc(Nc3ccc(Oc4cccc(C(F)(F)F)c4)c(Cl)c3)c21
In short: as §1

[11] = compound: CC(C)C1=C2N=C(C=C(N2N=C1)NCC3=CC=CC=C3)NCCCCCCN
In short: as §1

[12] = compound: CC1=C(C(CC(=O)N1)C2=CC=C(C=C2)C(F)(F)F)C(=O)NC3=C(C=C4C(=C3)C=NN4)F
In short: as §1

[13] = compound: CC1=C(C2=C(C=C1)C(=O)C3=CC=CC=C3N2CCCN)C
In short: as §1

[14] = compound: CC1=C(C=C(C=C1)NC(=O)C2=CC(=CC=C2)C(C)(C)C#N)NC3=CC4=C(C=C3)N=CN(C4=O)C
In short: as §1

[15] = compound: CC1=C(C=C(C=C1)NC(=O)C2=CC(=CC=C2)N(C)C)NC(=O)C3=CC=C(C=C3)O
In short: as §1

[16] = compound: CC1=CC=C(C=C1)SC2=C3C=C(SC3=CN=C2)C(=O)N
In short: as §1

| Target | log2 fold change (erlotinib) | log2 fold change [1] | log2 fold change [2] | log2 fold change [3] | log2 fold change [4] | log2 fold change [5] | log2 fold change [6] | log2 fold change [7] | log2 fold change [8] | log2 fold change (IRAK-1-4 Inhibitor I) | log2 fold change (ibrutinib) | log2 fold change [9] | log2 fold change (ralimetinib) | log2 fold change [10] | log2 fold change [11] | log2 fold change [12] | log2 fold change [13] | log2 fold change [14] | log2 fold change [15] | log2 fold change [16] |
| --- | --- | --- | --- | --- | --- | --- | --- | --- | --- | --- | --- | --- | --- | --- | --- | --- | --- | --- | --- | --- |
| CSRP3 (UniProt P50461) | inactive: 0.105 | inactive: -0.087 | inactive: 0.102 | inactive: 0.016 | inactive: -0.074 | inactive: 0.1 | inactive: 0.01 | inactive: -0.011 | inactive: 0.009 | inactive: -0.133 | inactive: 0.096 | inactive: -0.047 | inactive: 0.034 | inactive: -0.042 | inactive: -0.026 | inactive: -0.039 | inactive: 0.016 | inactive: 0.146 | inactive: -0.042 | inactive: 0.004 |
| CTDP1 (UniProt Q9Y5B0) | inactive: 0.018 | inactive: 0.021 | inactive: 0.016 | inactive: 0.009 | inactive: -0.036 | inactive: 0 | inactive: 0.013 | inactive: 0.011 | inactive: 0.017 | inactive: -0.017 | inactive: 0.035 | inactive: -0.021 | inactive: 0.047 | inactive: -0.003 | inactive: 0.012 | inactive: 0.012 | inactive: 0.001 | inactive: 0.016 | inactive: -0.023 | inactive: -0.024 |
| CSNK2A1 (UniProt P68400) | inactive: 0.005 | inactive: -0.111 | inactive: -0.02 | inactive: 0.225 | active: 0.356 | inactive: 0.017 | inactive: 0.219 | inactive: 0.112 | inactive: -0.02 | inactive: 0 | inactive: -0.041 | active: 0.468 | inactive: 0.002 | inactive: -0.028 | inactive: -0.054 | inactive: -0.039 | inactive: 0.158 | inactive: -0.078 | inactive: -0.01 | inactive: 0.002 |
| CYCS (UniProt P99999) | inactive: -0.022 | inactive: -0.121 | inactive: -0.019 | inactive: -0.006 | inactive: 0.003 | inactive: 0.008 | inactive: 0.02 | inactive: 0.011 | inactive: 0.002 | inactive: -0.005 | inactive: 0.027 | inactive: 0.024 | inactive: 0 | inactive: 0.004 | inactive: -0.016 | inactive: -0.05 | inactive: -0.005 | inactive: 0.012 | inactive: -0.015 | inactive: 0.031 |
